Reference: the supplement of paper PMC3334620
The full ranking holds about 33,000 sequences; the median of “E-score (-0.5 to 0.5)” is about -0.0059, and the highest 2% start at about 0.26. Some of the results follow.

Target: T1, Cin5 (UniProt P40917)
T1 sequence: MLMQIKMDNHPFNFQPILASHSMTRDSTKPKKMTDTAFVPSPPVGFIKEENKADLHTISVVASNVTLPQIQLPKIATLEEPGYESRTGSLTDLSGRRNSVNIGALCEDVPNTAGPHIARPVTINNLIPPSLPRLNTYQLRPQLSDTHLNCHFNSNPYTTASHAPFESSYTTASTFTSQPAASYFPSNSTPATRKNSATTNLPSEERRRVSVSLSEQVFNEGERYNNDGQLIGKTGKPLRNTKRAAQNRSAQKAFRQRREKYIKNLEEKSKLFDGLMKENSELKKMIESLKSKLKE
Test: PBM E-score (8-mer binding enrichment) (E-score (-0.5 to 0.5)); higher = stronger / more preferred TF binding
Conditions: protein concentration: 100 nM; construct: GST-full length
Method: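 Universal 'all 10-mer' protein binding microarrays (Agilent AMADID 015681) probed with GST-tagged S. cerevisiae TFs (full-length or DBD) made by in vitro transcription/translation (PURExpress), about 100-200 nM. Bound TF was detected with fluorescent anti-GST. Each ungapped 8-mer (which stands for itself and its reverse complement) is scored by the PBM enrichment score (E-score), a modified Wilcoxon-Mann-Whitney statistic from -0.5 to +0.5, computed with the Universal PBM Analysis Suite. Scale: above 0.35 generally sequence-specific binding.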

Row | Sequence | PBM E-score
1 | AATTCCGG | 0.155
2 | GAGCTAAC | 0.0137
3 | AGTCAGTC | -0.15
4 | ACCCCAAT | 0.0988
5 | GCCGGCCA | 0.0436
6 | ACTCAACC | 0.0912
7 | CGATGCCG | -0.246
8 | CCCATCCA | 0.0648
9 | CAAAGCAA | 0.137
10 | CGAGCGGC | -0.0196
11 | GCCAAACC | -0.207
12 | GTGAGACA | -0.0456
13 | ATCCTATC | 0.0368
14 | AGTCCTTC | -0.296
15 | ATAGGAAA | 0.192
16 | ATAATTTC | 0.136
17 | GCTCCTCA | -0.351
18 | AGTCAGTA | 0.188
19 | TATACTCA | 0.21
20 | CCGAAGAA | -0.0648
21 | ACGAACCC | -0.164
22 | CTCGTATC | 0.0387
23 | CGGTTTCC | 0.0337
24 | CAACAGTC | -0.158
25 | AATCACGA | 0.0391

Row | Sequence | PBM E-score
26 | CCCTAGGA | -0.242
27 | AGGTACAT | -0.0367
28 | CGTGCATA | 0.0611
29 | TTAGATAA | 0.32
30 | TCGGACAA | 0.0752
31 | ATAAGGTG | 0.0425
32 | GACATCGC | -0.0498
33 | ATGGTCCA | -0.25
34 | CACAAAAC | 0.206
35 | CCCCATCC | 0.00185
36 | GAATTATC | 0.145
37 | ATGTCCGC | -0.077
38 | CTGTCTGA | -0.147
39 | TCTGTCAA | -0.0264
40 | TGAGCAAA | 0.114
41 | TCGATCAA | -0.0607
42 | AGAACGCA | -0.00096
43 | CAATAACA | 0.193
44 | CAAGCTGC | -0.025
45 | CCAAGGAC | -0.227
46 | AGTGCTAC | -0.0926
47 | AGAATTGC | 0.11
48 | CCTACATC | 0.0465
49 | GCTCATCA | -0.0104
50 | ACAGACAC | -0.0499

Row | Sequence | PBM E-score
51 | CGTGCTTA | 0.273
52 | ACTATTCT | 0.0707
53 | GCCATCCC | -0.0504
54 | CAATATAC | 0.181
55 | CTCGCGTC | 0.0152
56 | ACCGCATA | 0.108
57 | CCGGCGTC | -0.0574
58 | AGTTGACA | 0.119
59 | ACACCGAT | -0.0975
60 | CGGTATTC | 0.0748
61 | AAAGTTAT | 0.193
62 | CCAGATAG | -0.108
63 | GGTATGAA | 0.126
64 | GGGTTGCA | -0.0486
65 | AAGATTGC | -0.00556
66 | CTGCGTGA | 0.0468
67 | ATTATATC | 0.197
68 | GAGCCCAA | 0.185
69 | CTCGAGTC | -0.101
70 | CATGCACC | -0.208
71 | ATGGAGAC | -0.00445
72 | ATCTCGTA | -0.00241
73 | AACGGAGT | 0.115
74 | CGAGGTGC | 0.209
75 | GCTAGCTA | -0.0995

Retrieved one by one from above (2):
Row | Sequence | PBM E-score
54 | CAATATAC | 0.181
67 | ATTATATC | 0.197

More entries:

Row | Sequence | PBM E-score
76 | GGTTAGAA | -0.1
77 | TACTAGAA | 0.0441
78 | AGCAAATA | 0.134
79 | GGCTCTAA | 0.0226
80 | CAAGGGTC | -0.0649
81 | AGGTCAAG | 0.0294
82 | CCCGCTTA | 0.209
83 | GCAGCTCC | -0.123
84 | CGTAACGC | 0.0362
85 | CAGCCATG | -0.0224
86 | GTTGCGTA | 0.068
87 | CGAAATAC | 0.177
88 | AAGCTATA | -0.0861
89 | GGTGAAAC | -0.143
90 | ACATGACC | -0.0885
91 | TCAGATCA | -0.0379
92 | GTACGAGA | -0.0307
93 | AGTAAGAC | -0.0377
94 | GAAACTCC | -0.209
95 | CTTTTATC | 0.158
96 | CTTGTCCC | -0.0876
97 | ATTTCGAA | 0.188
98 | CAGGCGAC | -0.141
99 | AGTGTGGG | 0.00697
100 | AGCAAAGG | 0.0298

Row | Sequence | PBM E-score
101 | GGCGATTA | 0.133
102 | AATGCTAA | 0.113
103 | ACGCAGAG | 0.0271
104 | GGTTAAGA | -0.121
105 | CTATCTGA | -0.0877
106 | GCCGTCGC | -0.0942
107 | ACGCTTTA | -0.169
108 | TAATCTGA | 0.164
109 | CAGGTCAC | -0.311
110 | CGATTTCC | 0.132
111 | GGCAGATA | -0.00899
112 | CCCACCGA | 0.0271
113 | GTAGTACA | 0.131
114 | ATCACGAT | 0.0551
115 | GGACAGGA | -0.275
116 | ACGCTAAG | -0.222
117 | ATCGAAGG | 0.0406
118 | GTGTGAAA | 0.145
119 | ATGTGCTA | 0.0306
120 | AACTTGAG | -0.188
121 | AGTAACTC | 0.0111
122 | GTCCCACA | 0.0921
123 | CATCCACA | 0.0448
124 | CGACCATC | -0.0947
125 | AGTGGAGA | 0.0943

Reformatted as comma-separated lines: entries from further up.
Row,Sequence,PBM E-score
118,GTGTGAAA,0.145
119,ATGTGCTA,0.0306
120,AACTTGAG,-0.188

Following part

Row | Sequence | PBM E-score
126 | AAGGCTGG | -0.277
127 | CCCAAAAG | 0.0282
128 | CTCACGAC | -0.248
129 | ATAGTGGC | -0.00569
130 | ATAGGGGG | -0.321
131 | ACGACAGT | -0.0857
132 | AATACTCA | 0.183
133 | TACGCGCA | 0.0939
134 | AGTCTGGC | -0.213
135 | CGAACATC | 0.0222
136 | GTCCCAGA | -0.267
137 | CCCGTGCA | -0.161
138 | CCTCAGAG | -0.249
139 | AGCCTTAG | -0.197
140 | AGGTGTGC | -0.0771
141 | ACATTATG | 0.106
142 | GATTGAAA | 0.111
143 | ACATGTTA | 0.126
144 | CTAGTATC | 0.186
145 | TAACACCA | 0.0761
146 | CATAAGCA | 0.336
147 | AACATACT | 0.0533
148 | CTATATGC | 0.212
149 | CGACGCTA | -0.11
150 | AGCCGAGG | 0.096

Row | Sequence | PBM E-score
151 | AATTTGAA | 0.0459
152 | GATCTAGC | -0.14
153 | CCGATAAG | -0.0811
154 | TCTCGAGA | 0.0563
155 | AGGTCTAT | -0.0147
156 | AGATCAAT | 0.139
157 | GCTTATAA | 0.229
158 | ACCGCAGA | -0.176
159 | CGTTGACC | 0.00329
160 | GAAGCATC | -0.0786
161 | CCAATGGA | -0.00717
162 | CAGCTGGC | -0.0922
163 | ACCCCAGG | -0.273
164 | CTTAACGC | -0.0843
165 | AACCAGCT | 0.118
166 | AGTCAGAT | 0.00282
167 | CTGGAACC | -0.153
168 | AGGCTATG | -0.192
169 | CGTGATTA | 0.273
170 | CCAGGCGC | -0.268
171 | GAGTTAAC | -0.0847
172 | ACGACGAC | -0.109
